Reference: patent publication US20170065564A1, “BIS-CYCLIC GUANIDINE COMPOUND COMPOSITIONS, METHODS OF USE AND TREATMENT THEREOF” (University of South Florida, priority 2014, published 2017)

The compounds below were run on human A549 cells (assay: Cytotoxicity assay (MTT)). Conditions: A549 IC50 divided by MIC.
Format: cell-based
Procedure: Cytotoxicity assays were performed using human A549 cells (adenocarcinomic human alveolar epithelial cells), as described by us previously.^44 Briefly, cells were cultured in F-12K Nutrient mixture (Kaighn's Modification) media containing L-glutamine, supplemented with 10% fetal bovine serum and 1% penicillin-streptomycin for 3 days at 37° and 5% CO2. Cells were then diluted to 1.0×10^5 ml^−1 using F-12K supplemented media, and added to 96 well tissue culture plates at a volume of 100 μl. Plates were incubated for 24 hours at 37° C. and 5% CO2, allowing the cells to adhere to the plastic. […] Plates were then incubated for 48 hours at 37° C. and 5% CO2. After 48 hours the media was removed, and new media added containing MTT (3-(4, 5-dimethylthiazol-2-yl)-2, 5-diphenyltetrazolium bromide), followed by incubation for four hours at 37° C. and 5% CO2. After 4 h, 50 μl of media was removed, replaced with DMSO and incubated for ten minutes at 37° C. in order to solubilize any formazan produced. A Biotek plate reader was used to measure the absorbance of formazan production at […], and IC50 values were determined for each of the five compounds. Front runners were solvated in 45% w/v (2-hydroxypropyl)-β-cyclodextrin in water for these studies; which was also used alone as a negative control. IC50 values were determined for each compound by comparison to vehicle only controls, to assess toxicity to human cells.

Going from CCCC[C@H]1CN(CCCC[C@H]2CNC(=N)N2CCc2cccc(C(F)(F)F)c2)C(=N)N1CCCCC1CCCCC1 [Compound 2, (S)-4-butyl-3-(4-cyclohexylbutyl)-1-(4-((S)-2-imino-3-(3-(trifluoromethyl)phenethyl)imidazolidin-4-yl)butyl)imidazolidin-2-imine] to CCCCCCCN1C(=N)N(CCCC[C@H]2CNC(=N)N2CCc2cccc(C(F)(F)F)c2)C[C@@H]1CC1CCCCC1 [Compound 7], the “AI (Activity Index, IC50/MIC)” value falls from 81.8 to 43.1.

First: CCCCCCCN1C(=N)N(CCCC[C@H]2CNC(=N)N2CCC23CC4CC(CC(C4)C2)C3)C[C@@H]1CCCC [Compound 19]
Second: CCCCCCCN1C(=N)N(CCCC[C@H]2CNC(=N)N2CCc2cccc(C(F)(F)F)c2)C[C@@H]1CCCC [Compound 1]
The “AI (Activity Index, IC50/MIC)” value of the first is lower: 87.6 for the first, 100 for the second.

In the case of CCCCCCCN1C(=N)N(CCCC[C@H]2CNC(=N)N2CCCCC2CCCCC2)C[C@@H]1CC1CCCCC1 [Compound 16], the “AI (Activity Index, IC50/MIC)” value is reported as over 139.
